Test results from article PMC11514270.

By UniProt entry, the sequences of proteins in these tests, tags left out. Residues count along the entry.
UniProt Q9H0J9: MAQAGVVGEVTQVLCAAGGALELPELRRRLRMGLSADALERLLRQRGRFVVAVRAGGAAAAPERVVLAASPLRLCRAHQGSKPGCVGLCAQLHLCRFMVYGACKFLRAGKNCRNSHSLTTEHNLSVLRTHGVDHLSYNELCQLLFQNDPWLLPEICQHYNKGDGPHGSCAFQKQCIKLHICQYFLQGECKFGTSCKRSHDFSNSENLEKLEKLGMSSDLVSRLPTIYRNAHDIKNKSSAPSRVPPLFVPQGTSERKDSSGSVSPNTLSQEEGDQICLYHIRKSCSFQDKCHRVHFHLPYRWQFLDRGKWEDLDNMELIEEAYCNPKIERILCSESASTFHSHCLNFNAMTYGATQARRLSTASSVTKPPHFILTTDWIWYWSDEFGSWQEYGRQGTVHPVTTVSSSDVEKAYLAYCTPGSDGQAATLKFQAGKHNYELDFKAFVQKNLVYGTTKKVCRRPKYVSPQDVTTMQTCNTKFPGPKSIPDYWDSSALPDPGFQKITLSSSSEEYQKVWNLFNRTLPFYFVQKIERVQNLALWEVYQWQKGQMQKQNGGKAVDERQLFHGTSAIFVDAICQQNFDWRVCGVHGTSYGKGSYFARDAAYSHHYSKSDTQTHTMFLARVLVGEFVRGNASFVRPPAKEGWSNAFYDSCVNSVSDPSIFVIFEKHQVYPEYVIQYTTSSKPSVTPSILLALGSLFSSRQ
UniProt P05161, residues 1-157: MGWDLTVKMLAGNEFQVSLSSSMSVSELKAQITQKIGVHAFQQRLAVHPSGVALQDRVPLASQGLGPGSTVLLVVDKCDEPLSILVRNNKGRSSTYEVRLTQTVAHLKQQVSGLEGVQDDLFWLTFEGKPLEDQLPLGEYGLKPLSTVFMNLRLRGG

Biological target: Poly (ADP-ribose) polymerase family member 12 (PARP12) (human (endogenous in primary human chondrocytes)) (UniProt Q9H0J9)
Assay: affinity purification with mass spectrometry; PHC lysate incubated with 1 ug anti-PARP12 antibody (ab241967) or normal rabbit IgG overnight at 4 °C, Protein A/G beads 2 h at room temperature, SDS-PAGE, silver staining, mass spectrometry

binding: binds
Substance: Interferon-stimulated gene 15 (ISG15) (from UniProt P05161 1-157)

No constants are given. Whether binding was seen depends on the method and setting. Binding seen in cells or lysates may run through a third protein. A yes stands for co-enrichment or nearness to the bait. Other partners may have been found.
